The target in this experiment is T1, HA-KCTD10, full length (UniProt Q9H3F6).
T1 sequence: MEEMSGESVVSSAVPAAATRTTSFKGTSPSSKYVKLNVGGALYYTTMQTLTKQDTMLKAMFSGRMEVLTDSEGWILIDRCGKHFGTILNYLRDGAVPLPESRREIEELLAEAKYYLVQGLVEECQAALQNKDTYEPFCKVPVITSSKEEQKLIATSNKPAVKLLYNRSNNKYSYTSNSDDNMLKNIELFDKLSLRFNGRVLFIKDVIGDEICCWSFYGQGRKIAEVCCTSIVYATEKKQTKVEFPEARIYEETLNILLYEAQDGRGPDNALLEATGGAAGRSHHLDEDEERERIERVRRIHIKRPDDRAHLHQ
The experiment in a line: co-IP; cells transfected with HA-KCTD10; whole cell extracts immunoprecipitated with anti-tag antibody and protein A/G beads; endogenous β-catenin detected by blot; rabbit preimmune IgG as negative control.

Protein sequences, listed by entry. Tags and fused reporters are not part of them.
UniProt P35222: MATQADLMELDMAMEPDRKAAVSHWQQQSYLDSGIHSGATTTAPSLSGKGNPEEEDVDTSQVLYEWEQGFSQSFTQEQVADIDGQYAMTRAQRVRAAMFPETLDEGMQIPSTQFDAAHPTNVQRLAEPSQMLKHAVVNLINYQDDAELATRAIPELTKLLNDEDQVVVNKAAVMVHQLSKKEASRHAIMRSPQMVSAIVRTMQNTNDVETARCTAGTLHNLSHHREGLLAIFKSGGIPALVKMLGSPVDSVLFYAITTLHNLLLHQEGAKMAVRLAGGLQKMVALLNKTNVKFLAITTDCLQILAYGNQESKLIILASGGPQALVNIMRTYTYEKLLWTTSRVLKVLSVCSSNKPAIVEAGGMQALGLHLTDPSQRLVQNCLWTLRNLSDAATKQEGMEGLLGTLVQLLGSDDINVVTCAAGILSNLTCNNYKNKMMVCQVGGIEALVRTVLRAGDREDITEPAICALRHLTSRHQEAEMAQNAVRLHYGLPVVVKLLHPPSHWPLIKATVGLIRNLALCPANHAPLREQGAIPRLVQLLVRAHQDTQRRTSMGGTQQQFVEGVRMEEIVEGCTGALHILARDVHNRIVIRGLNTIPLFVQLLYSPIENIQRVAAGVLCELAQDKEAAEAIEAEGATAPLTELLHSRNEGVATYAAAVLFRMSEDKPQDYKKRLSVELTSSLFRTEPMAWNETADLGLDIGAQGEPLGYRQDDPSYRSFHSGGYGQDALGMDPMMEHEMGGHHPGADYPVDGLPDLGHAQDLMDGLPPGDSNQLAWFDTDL

These are yes or no findings as the source states them, for the method shown. Binding seen in cells or lysates may run through a third protein. Some results given as binding are weak or reduced against the parent protein; the word gives no strength. Where a sequence is shown, tags or fusion partners need not be part of it.

For the substance “β-catenin (cadherin-associated protein, beta 1), endogenous (from UniProt P35222 1-781)”, the binding result is given as “binds”.

Source of the values: PMC12378768.
